## Drug screen on melanoma cell lines: apoptosis marker

Values as published with doi:10.1371/journal.pone.0140310, rounded.

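Human melanoma cell lines in 1,536-well plates were treated with two drugs together for 72 h, then fixed, stained and imaged. Values are the share of nuclei positive for cleaved PARP as a percentage of the same share in the DMSO control: 100 is the control level, higher means more apoptosis. Concentrations were fixed for each drug; these are the higher of two levels. No replicate spread is given; individual values may be noisy. The marker varies much from line to line, for technical or biological reasons.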 This is part of the screen, not chosen by result. An entry leaves out what has no value listed here.

All values are for the listed drug together with fingolimod (10000 nM): CCCCCCCCc1ccc(CCC(N)(CO)CO)cc1

With COc1cc(N2CCC(N3CCN(C)CC3)CC2)ccc1Nc1ncc(Cl)c(Nc2ccccc2S(=O)(=O)C(C)C)n1 at 400 nM the screen read LOX IMVI: 370. NCC(=O)Nc1ccc(-n2nc(C(F)(F)F)cc2-c2ccc3c(ccc4ccccc43)c2)cc1 at 5000 nM gave SK-MEL-2: 10600; LOX IMVI: 3440. Results for NC(=O)c1ccc(N(C(N)=O)c2c(F)cccc2F)nc1-c1ccc(F)cc1F at 2000 nM are SK-MEL-2: 5150; LOX IMVI: 760. With Cn1cc(/C=C2\C(=O)Nc3cccnc32)c2ccccc21 at 2000 nM the screen read SK-MEL-2: 23800; LOX IMVI: 331.

With Nc1nc(F)nc2c1ncn2[C@@H]1O[C@H](CO)[C@@H](O)[C@@H]1O at 1000 nM the screen read SK-MEL-2: 11200; LOX IMVI: 228. With CCN(CC)CCNC(=O)c1c(C)[nH]c(/C=C2\C(=O)Nc3ccc(F)cc32)c1C at 2000 nM the screen read SK-MEL-2: 2880; LOX IMVI: 177. For CO[C@H]1C[C@@H]2CC[C@@H](C)[C@@](O)(O2)C(=O)C(=O)N2CCCC[C@H]2C(=O)O[C@H]([C@H](C)C[C@@H]2CC[C@@H](OCCO)[C@H](OC)C2)CC(=O)[C@H](C)/C=C(\C)[C@@H](O)[C@@H](OC)C(=O)[C@H](C)C[C@H](C)/C=C/C=C/C=C/1C at 100 nM the values were SK-MEL-2: 4230; LOX IMVI: 240. For O=C(Nc1ccccc1)c1cc([N+](=O)[O-])ccc1Cl at 10000 nM the values were SK-MEL-2: 6170; LOX IMVI: 238.

COc1cc2c(Oc3ccc4[nH]c(C)cc4c3F)ncnc2cc1OCCCN1CCCC1 at 2000 nM gave SK-MEL-2: 2520; LOX IMVI: 289. Results for CCCCCCCCCCCC1=C(O)C(=O)C=C(O)C1=O at 6000 nM are SK-MEL-2: 7400; LOX IMVI: 118. For CCCCCCCCCCCCCCCCCCOP(=O)([O-])OC1CC[N+](C)(C)CC1 at 2000 nM the values were SK-MEL-2: 9800; LOX IMVI: 219. Results for CC1(C)NC(=O)N(c2ccc([N+](=O)[O-])c(C(F)(F)F)c2)C1=O at 5000 nM are SK-MEL-2: 829; LOX IMVI: 810.

With CS(=O)(=O)c1ccc(C(=O)Nc2ccc(Cl)c(-c3ccccn3)c2)c(Cl)c1 at 5000 nM the screen read SK-MEL-2: 8720; LOX IMVI: 251. With C[C@]1(O)C[C@@H](c2nc(-c3ccc4ccc(-c5ccccc5)nc4c3)c3c(N)nccn32)C1 at 2000 nM the screen read SK-MEL-2: 31800; LOX IMVI: 1090. With Nc1cccc2c1CN(C1CCC(=O)NC1=O)C2=O (centres undefined) at 5000 nM the screen read SK-MEL-2: 3070; LOX IMVI: 146. For Nc1ccn([C@@H]2O[C@H](CO)[C@@H](O)C2(F)F)c(=O)n1 at 2 nM the values were SK-MEL-2: 112; LOX IMVI: 214.

With Cn1cc(C2=C(c3cn(C4CCN(Cc5ccccn5)CC4)c4ccccc34)C(=O)NC2=O)c2ccccc21 at 4000 nM the screen read SK-MEL-2: 11700; LOX IMVI: 255. Results for C/C(O)=C(\C#N)C(=O)Nc1cc(Br)ccc1Br at 10000 nM are SK-MEL-2: 1250; LOX IMVI: 391. With CC(C)C[C@H](NC(=O)[C@H](Cc1ccccc1)NC(=O)c1cnccn1)B(O)O at 5 nM the screen read SK-MEL-2: 2070; LOX IMVI: 405. For Cn1c(=O)n(-c2ccc(C(C)(C)C#N)cc2)c2c3cc(-c4cnc5ccccc5c4)ccc3ncc21 at 20 nM the values were SK-MEL-2: 17400; LOX IMVI: 434.

Results for COc1ccc(COc2ccc(Cc3cnc(N)nc3N)cc2OC)cc1 at 5000 nM are SK-MEL-2: 642; LOX IMVI: 130. For Cc1cc([N+](=O)[O-])ccc1NS(=O)(=O)c1cc(Cl)ccc1Cl at 5000 nM the values were SK-MEL-2: 82.3; LOX IMVI: 203. Cc1cn(-c2cc(NC(=O)c3ccc(C)c(Nc4nccc(-c5cccnc5)n4)c3)cc(C(F)(F)F)c2)cn1 at 1000 nM gave SK-MEL-2: 10600; LOX IMVI: 327. With Cc1cc(Nc2cc(N3CCN(C)CC3)nc(Sc3ccc(NC(=O)C4CC4)cc3)n2)n[nH]1 at 30 nM the screen read SK-MEL-2: 2720; LOX IMVI: 164.

Some entries from above, unchanged:

| Second drug | SK-MEL-2 | LOX IMVI |
|---|---|---|
| COc1ccc(COc2ccc(Cc3cnc(N)nc3N)cc2OC)cc1 at 5000 nM | 642 | 130 |
| CCN(CC)CCNC(=O)c1c(C)[nH]c(/C=C2\C(=O)Nc3ccc(F)cc32)c1C at 2000 nM | 2880 | 177 |